# In paper PMC7819943, “Rice protein-binding microarrays: a tool to detect cis-acting elements near promoter regions in rice”:
# Protein sequences, listed by entry. Tags and fused reporters are not part of them.
# UniProt Q0JBA9, entry or part of it: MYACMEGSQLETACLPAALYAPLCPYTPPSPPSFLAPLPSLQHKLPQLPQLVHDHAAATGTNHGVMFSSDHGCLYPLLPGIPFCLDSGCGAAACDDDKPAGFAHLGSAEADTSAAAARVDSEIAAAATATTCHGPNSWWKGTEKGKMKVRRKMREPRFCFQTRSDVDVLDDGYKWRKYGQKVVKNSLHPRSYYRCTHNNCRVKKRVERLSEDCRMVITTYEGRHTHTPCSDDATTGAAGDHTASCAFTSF
# The other results are listed elsewhere or left out.
# Target: OsWRKY34 (Oryza sativa, UniProt Q0JBA9 1-250)
# Assay: protein-binding microarray (RPBM); PBS, 2% BSA, 51.3 ng/ul salmon testes DNA, 50 uM zinc acetate, 200 nM TF, 25 C, 1 h; high values mean tight binding
# Details: protein: recombinant; tags: N-terminal polyhistidine and DsRed monomer fusion (pET32a); label: CyDye5-dUTP incorporated in the synthesized complementary strand; 3' TTTTT single-stranded linker to array surface; dsDNA, one strand shown
# How it was run: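 Transcription factors, each fused N-terminally to a polyhistidine tag and DsRed, were expressed in E. coli BL21-CodonPlus and purified on Ni–NTA. A custom Agilent array was made double-stranded by primer extension with Cy5-dUTP and blocked with 2% BSA. It was incubated with 200 nM protein in PBS, 2% BSA, salmon testes DNA and 50 µM zinc acetate at 25 °C for 1 h, then washed. The binding signal is per-feature fluorescence intensity (arbitrary units) read on an Axon 4000B scanner.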
row,Sequence,binding signal
1,GAGTATGATAGTTGTGTGGTTTTTACCCCGTTTTCGCTAACGGAGTCACCTAGTGCAG,10800 fluorescence intensity (a.u.)
2,AGAAGACACACTTTAGTACTAACACTTCAACATTTTTCACCGGAGTCACCTAGTGCAG,8150 fluorescence intensity (a.u.)
3,ATAAAATAGTTGACTGGCTATCTTCTACTCCACTTGGTATCGGAGTCACCTAGTGCAG,8860 fluorescence intensity (a.u.)
4,GTTTGACACTTTTAGTACGTGTTTGACCATTTGTTTTATTCGGAGTCACCTAGTGCAG,10200 fluorescence intensity (a.u.)
5,CAATACCCTTCATCCATCTTTTGGCTATTTGGCAGTTTCTCGGAGTCACCTAGTGCAG,8660 fluorescence intensity (a.u.)
6,CATTTTTTCCTTTTTTTCAGGGCGTGACATGCCGGCACTCCGGAGTCACCTAGTGCAG,9790 fluorescence intensity (a.u.)
7,AACTACAACTATCTTGTTTTTATTTACACGCTTTTCAAACCGGAGTCACCTAGTGCAG,8620 fluorescence intensity (a.u.)
8,CCTTTGTGCTGTTTTCCATGTGTGTACCATTTGTATTTCTCGGAGTCACCTAGTGCAG,12600 fluorescence intensity (a.u.)
9,GTACTCCATTTGTCTCTAAATTTTTGGTTGGATGTTACACCGGAGTCACCTAGTGCAG,9860 fluorescence intensity (a.u.)
10,TGTGCTAAAAAGTCAACGGTGTCAAACATTTAGAAACGGACGGAGTCACCTAGTGCAG,9200 fluorescence intensity (a.u.)
11,AGGCGAGCGAGACGGCGGCGGGCGGGCGGGGCGGGCGACGCGGAGTCACCTAGTGCAG,14800 fluorescence intensity (a.u.)
12,AGGTGAGGGGATTTGATATTATTTCTTGGATTTTAGGGTGCGGAGTCACCTAGTGCAG,9440 fluorescence intensity (a.u.)
13,CGAGCAACACGGCGAAGTTTCTGTTCCTCATTTCCGCTTCCGGAGTCACCTAGTGCAG,8300 fluorescence intensity (a.u.)
14,ACTCAGCATCGGGTCCCGCATCACTTTTGTTTGAATGGAACGGAGTCACCTAGTGCAG,9180 fluorescence intensity (a.u.)
15,GGTTGGTTTGTTGTGTGGTAGGTAGGTGAGACGCATGTGCCGGAGTCACCTAGTGCAG,10600 fluorescence intensity (a.u.)
16,ATGGCACAAGTCTCGTTCACATTTGTTTTCATATATTTCCCGGAGTCACCTAGTGCAG,10800 fluorescence intensity (a.u.)
17,CCCTCGCGCACCGATCTCCGCTGTAGTTCTCCGCGCCGCCCGGAGTCACCTAGTGCAG,8540 fluorescence intensity (a.u.)
18,CCTCTTCTCCTTCGGTGTGTTCGTCGATGTGCTTTGCTGACGGAGTCACCTAGTGCAG,8580 fluorescence intensity (a.u.)
19,CTAGTGCTGCTTCATGTTATTATATGCTGAAATTGTGGGCCGGAGTCACCTAGTGCAG,8640 fluorescence intensity (a.u.)
20,ACATCACACAACACAGCCTCATCTCTCATGCTGTCATGCTCGGAGTCACCTAGTGCAG,9040 fluorescence intensity (a.u.)
21,CTTCTCCTGCTTGTTTCCTTGTCTTGTGGTGCATCACATCCGGAGTCACCTAGTGCAG,8810 fluorescence intensity (a.u.)
22,CTATTGATACTTATTTCTGTTAGCATCTTTTGTGCATCGTCGGAGTCACCTAGTGCAG,8330 fluorescence intensity (a.u.)
23,TCTTGTTTCGAAACCTACGTATTAATCTGACTCTGTTTTTCGGAGTCACCTAGTGCAG,13500 fluorescence intensity (a.u.)
24,GGATCGTTATTTTGCTTGTTAGTGTGTCGTCCACTGGCTTCGGAGTCACCTAGTGCAG,11100 fluorescence intensity (a.u.)
25,GCCCGTTTCTGATGATCATCGCCAGTTCACCACCGGTGAACGGAGTCACCTAGTGCAG,8280 fluorescence intensity (a.u.)
26,GCCGACTCCTCCGCCCACTCGGTTTCCACGCGTCGTTTATCGGAGTCACCTAGTGCAG,16200 fluorescence intensity (a.u.)
27,TTTCGACTAACGTTTGACCATTCGTTTTATTCAAAATTTTCGGAGTCACCTAGTGCAG,8880 fluorescence intensity (a.u.)

# Shown bar-delimited: entries from further up.
row | Sequence | binding signal
25 | GCCCGTTTCTGATGATCATCGCCAGTTCACCACCGGTGAACGGAGTCACCTAGTGCAG | 8280 fluorescence intensity (a.u.)
26 | GCCGACTCCTCCGCCCACTCGGTTTCCACGCGTCGTTTATCGGAGTCACCTAGTGCAG | 16200 fluorescence intensity (a.u.)
27 | TTTCGACTAACGTTTGACCATTCGTTTTATTCAAAATTTTCGGAGTCACCTAGTGCAG | 8880 fluorescence intensity (a.u.)

# More records follow.

row,Sequence,binding signal
1,GTCTTTGGTTGAGGTAGTGCACTATGATTAAATTTACAATCGGAGTCACCTAGTGCAG,8540 fluorescence intensity (a.u.)
2,GACAACGGTCAAATATGTGCTAAAAAGTCAACGGTATCAACGGAGTCACCTAGTGCAG,11600 fluorescence intensity (a.u.)
3,CTGCACAATCACATGATCTCATTTTAATTAGTTCAATACCCGGAGTCACCTAGTGCAG,9090 fluorescence intensity (a.u.)
4,GATGGGGCGAAATTACTAAAGTACCCTCGATTTTTTGACGCGGAGTCACCTAGTGCAG,8920 fluorescence intensity (a.u.)
5,ACCCAGCTTTTCCATATTCTCATAAGCTGGATACCGACCACGGAGTCACCTAGTGCAG,8060 fluorescence intensity (a.u.)
6,CACTGACTCACACCCCGTCACTCCCCTCTTCTCCTCACCTCGGAGTCACCTAGTGCAG,8170 fluorescence intensity (a.u.)
7,GCTAGTCTACTTCACCTTCCATCATCCGCTCAACGGTGAACGGAGTCACCTAGTGCAG,8220 fluorescence intensity (a.u.)
8,ATTGTTATCCTCAATTTCCTCTTGTTCATGTGCTCTTTCTCGGAGTCACCTAGTGCAG,11300 fluorescence intensity (a.u.)
9,CCCCAATGAATCATAGGCTCAACCTGCTCCTGCTGCAACACGGAGTCACCTAGTGCAG,8040 fluorescence intensity (a.u.)
10,ACATTCCTATCCCATTTTTTTCATTATTATTCTCTATGTTCGGAGTCACCTAGTGCAG,10600 fluorescence intensity (a.u.)
11,ATTTGTCTCTTTCGCGTCGTCTCTAACCTAACGTCCCAGACGGAGTCACCTAGTGCAG,13100 fluorescence intensity (a.u.)
12,GGTGGTCTTCTTTTTTTGCGGTGGAGTTGGATTTGGGTTGCGGAGTCACCTAGTGCAG,13000 fluorescence intensity (a.u.)
13,CCACCCCAACTATTATTGCTATCTTACCGACTTACCGTGTCGGAGTCACCTAGTGCAG,8960 fluorescence intensity (a.u.)
14,TCAGTCGATTTCTTCTTCCCGAAGCTTTCCAGCGCCTCATCGGAGTCACCTAGTGCAG,8290 fluorescence intensity (a.u.)
15,TTTGTTGTTCAAACTTTTGTTATGGTTAGTTAGGTCTATACGGAGTCACCTAGTGCAG,8490 fluorescence intensity (a.u.)
16,TCTTATCTCCTCGCCTCCACCTCCTCACCTGTAGTTTTCCCGGAGTCACCTAGTGCAG,10600 fluorescence intensity (a.u.)
17,AACACCAACACACCCTCGGGCCACGACTTCGACTACAACGCGGAGTCACCTAGTGCAG,8530 fluorescence intensity (a.u.)
18,GCGCGCGCCGCCGTCGTCATCCCCGTCGCTTCGCGCCTTCCGGAGTCACCTAGTGCAG,9150 fluorescence intensity (a.u.)
19,ATCTCCACCCCGACTCAGATCGCCTCCACTTCCAGCAGAGCGGAGTCACCTAGTGCAG,8600 fluorescence intensity (a.u.)
20,GGAACGTGGTATTAGTATTACTACCCTGCTCTGAGTTGATCGGAGTCACCTAGTGCAG,8750 fluorescence intensity (a.u.)
21,AATCCTTCAGTCTTCTGCACGTTTACCCTAAGTTTTATGGCGGAGTCACCTAGTGCAG,8570 fluorescence intensity (a.u.)
22,GCCCACGGACCAGCCACACATTTCCACTGACACGCGCTAACGGAGTCACCTAGTGCAG,10300 fluorescence intensity (a.u.)
23,GTCCATGATGCCCTAGTAAGCTTTCACGCCGGCGAGCAATCGGAGTCACCTAGTGCAG,8280 fluorescence intensity (a.u.)
24,CATTGTTCCTCACAGGATCAGGGGTGGAGAGTGAAGAGAGCGGAGTCACCTAGTGCAG,8070 fluorescence intensity (a.u.)
25,GTTTATGCTGTTGCTGATGAGGGTGGTGTGGGAATGTGCGCGGAGTCACCTAGTGCAG,8240 fluorescence intensity (a.u.)
26,GATGTCTCTCTTTTTTTTTTTGGTTTGGGTTGTCACTTTTCGGAGTCACCTAGTGCAG,9400 fluorescence intensity (a.u.)
27,GAATTACTCTCGTTGCTGGACTAATTTCTTGTTGGATACTCGGAGTCACCTAGTGCAG,9400 fluorescence intensity (a.u.)
